Results are given in words; binding and its absence hold for the method and conditions named. In cells and extracts the contact can be indirect. Some results given as binding are weak or reduced against the parent protein; the word gives no strength.

Protein sequences, listed by entry. Tags and fused reporters are not part of them. Residues count along the entry.
UniProt Q01705, residues 1744-2531: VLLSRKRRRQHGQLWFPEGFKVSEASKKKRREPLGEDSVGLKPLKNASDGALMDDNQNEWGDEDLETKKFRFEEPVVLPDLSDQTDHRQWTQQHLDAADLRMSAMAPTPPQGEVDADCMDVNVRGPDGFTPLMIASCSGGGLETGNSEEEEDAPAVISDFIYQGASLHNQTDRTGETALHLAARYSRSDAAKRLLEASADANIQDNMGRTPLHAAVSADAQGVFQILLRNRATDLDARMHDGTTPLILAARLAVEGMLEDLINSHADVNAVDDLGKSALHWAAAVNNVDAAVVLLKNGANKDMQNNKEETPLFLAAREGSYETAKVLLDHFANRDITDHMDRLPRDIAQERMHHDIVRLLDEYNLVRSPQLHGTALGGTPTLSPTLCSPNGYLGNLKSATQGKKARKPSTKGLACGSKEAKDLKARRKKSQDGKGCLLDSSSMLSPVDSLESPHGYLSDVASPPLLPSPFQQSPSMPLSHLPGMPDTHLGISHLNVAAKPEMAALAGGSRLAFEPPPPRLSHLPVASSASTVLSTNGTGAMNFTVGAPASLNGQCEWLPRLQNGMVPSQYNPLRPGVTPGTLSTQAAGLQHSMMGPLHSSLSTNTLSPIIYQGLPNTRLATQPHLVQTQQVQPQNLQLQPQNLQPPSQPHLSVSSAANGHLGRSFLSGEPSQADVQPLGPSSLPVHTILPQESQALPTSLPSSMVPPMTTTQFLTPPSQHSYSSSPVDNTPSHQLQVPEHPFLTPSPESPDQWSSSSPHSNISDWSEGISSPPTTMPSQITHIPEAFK
UniProt Q8BUN5: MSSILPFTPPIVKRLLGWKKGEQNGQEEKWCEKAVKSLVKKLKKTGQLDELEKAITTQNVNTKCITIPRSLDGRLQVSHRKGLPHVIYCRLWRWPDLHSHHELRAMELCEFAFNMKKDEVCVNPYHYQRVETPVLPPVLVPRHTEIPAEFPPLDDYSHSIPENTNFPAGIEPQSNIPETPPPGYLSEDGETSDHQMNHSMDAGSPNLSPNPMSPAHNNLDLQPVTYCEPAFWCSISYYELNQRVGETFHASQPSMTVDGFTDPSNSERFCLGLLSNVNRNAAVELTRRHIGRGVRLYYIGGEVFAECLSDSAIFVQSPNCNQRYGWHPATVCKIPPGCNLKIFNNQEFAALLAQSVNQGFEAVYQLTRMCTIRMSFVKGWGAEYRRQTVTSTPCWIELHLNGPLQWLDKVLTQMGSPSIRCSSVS

One assay addresses GST-NICD (mouse) (UniProt Q01705). Briefly: pull-down; GST-fusion proteins on glutathione-agarose beads mixed (1:1) with 35S-labelled in vitro translated proteins in lysis buffer (50 mM Tris pH 8.0, 150 mM NaCl, 0.1% SDS, sodium deoxycholate, protease inhibitors), 1 h at 4°C; SDS-PAGE, autoradiography; only the target purified.
The next assay addresses GST-Smad3 (UniProt Q8BUN5). Described as above.

B1: Foxc2 (protein, UniProt Q61850 1-494)
chain: MQARYSVSDPNALGVVPYLSEQNYYRAAGSYGGMASPMGVYSGHPEQYGAGMGRSYAPYHHQPAAPKDLVKPPYSYIALITMAIQNAPEKKITLNGIYQFIMDRFPFYRENKQGWQNSIRHNLSLNECFVKVPRDDKKPGKGSYWTLDPDSYNMFENGSFLRRRRRFKKKDVPKDKEERAHLKEPPSTTAKGAPTGTPVADGPKEAEKKVVVKSEAASPALPVITKVETLSPEGALQASPRSASSTPAGSPDGSLPEHHAAAPNGLPGFSVETIMTLRTSPPGGDLSPAAARAGLVVPPLALPYAAAPPAAYTQPCAQGLEAAGSAGYQCSMRAMSLYTGAERPAHVCVPPALDEALSDHPSGPGSPLGALNLAAGQEGALGASGHHHQHHGHLHPQAPPPAPQPPPAPQPATQATSWYLNHGGDLSHLPGHTFATQQQTFPNVREMFNSHRLGLDNSSLGESQVSNASCQLPYRATPSLYRHAAPYSYDCTKY
modifications: [35S]methionine-labelled
B1: the results for the binding entry in the assay with GST-NICD (mouse) and in the assay with GST-Smad3 were “no binding” and “binds”, respectively.

B2: Foxc1 (protein, UniProt Q61572 1-553)
chain: MQARYSVSSPNSLGVVPYLGGEQSYYRAAAAAAGGGYTAMPAPMSVYSHPAHAEQYPGSMARAYGPYTPQPQPKDMVKPPYSYIALITMAIQNAPDKKITLNGIYQFIMDRFPFYRDNKQGWQNSIRHNLSLNECFVKVPRDDKKPGKGSYWTLDPDSYNMFENGSFLRRRRRFKKKDAVKDKEEKGRLHLQEPPPPQAGRQPAPAPPEQAEGSAPGPQPPPVRIQDIKTENGTCPSPPQPLSPAAALGSGSAATVPKIESPDSSSSSLSSGSSPPGSLPSARPLSLDAAEPAPPPQPAPPPHHSQGFSVDNIMTSLRGSPQGSAAELGSGLLASAAASSRAGIAPPLALGAYSPGQSSLYSSPCSQSSSAGSSGGGGGGGGGGGGSSSAAGTGGAATYHCNLQAMSLYAAGERGGHLQGPAGGAGSAAVDDPLPDYSLPPATSSSSSSLSHGGGGQEASHHPASHQGRLTSWYLNQAGGDLGHLASAAAAAAAAGYPGQQQNFHSVREMFESQRIGLNNSPVNGNSSCQMAFPASQSLYRTSGAFVYDCSKF
modifications: [35S]methionine-labelled
For the molecule B2, the figures for the binding result with GST-NICD (mouse) and in the assay with GST-Smad3 were “no binding” and “binds”, respectively.

The values above are taken from publication PMC2398774.
